Some results were stated once for a whole list of compounds, not compound by compound.
Assays:
Puccinia triticina = Puccinia triticina test (wheat)/protective; format: in vivo; conditions: protective, active compound concentration 1000 ppm, evaluation 8 days after inoculation
Alternaria solani = assay: Alternaria test (tomato)/protective; format: in vivo; conditions: protective, 100 ppm, evaluation 3 days after inoculation
Experimental: [table] To produce a suitable preparation of active compound, 1 part by weight of active compound is mixed with the stated amounts of solvent and emulsifier, and the concentrate is diluted with water to the desired concentration. To test for protective activity, young plants are sprayed with the preparation of active compound at the stated application rate. After the spray coating has dried on, the plants are inoculated with an aqueous spore suspension of Alternaria solani. The plants are then placed in an incubation cabin at about 20° C. and 100% relative atmospheric humidity.

Venturia inaequalis = assay: Venturia test (apple)/protective; format: in vivo; conditions: protective, active compound concentration 100 ppm, evaluation 10 days after inoculation
Fusarium graminearum = format: cell-based; conditions: 50 µM
[1] = system: Blumeria graminis f.sp. hordei; assay: Blumeria graminis test (barley)/protective; format: in vivo; conditions: protective, active compound concentration 500 ppm, evaluation 7 days after inoculation
Leptosphaeria nodorum = Leptosphaeria nodorum test (wheat)/protective; format: in vivo; conditions: protective, active compound concentration 500 ppm, evaluation 7-9 days after inoculation
Fusarium proliferatum = assay: Production of fumonisin FB1 by Fusarium proliferatum; format: cell-based; conditions: 50 μM, 5 days, HPLC-MS/MS, vs active compound-free control
Sphaerotheca fuliginea = assay: Sphaerotheca test (cucumber)/protective; format: in vivo; conditions: protective, active compound concentration 500 ppm, evaluation 7 days after inoculation
Aspergillus parasiticus = format: cell-based; conditions: 50 µM

Structure (SMILES)	efficacy (Puccinia triticina) [%]	Efficacy in % (Alternaria solani) [%]	efficacy (Venturia inaequalis) [%]	inhibition of DON/AcDON production (Fusarium graminearum) [%]	efficacy [1] [%]	efficacy (Leptosphaeria nodorum) [%]	inhibition of fumonisin FB1 production (Fusarium proliferatum) [%]	efficacy (Sphaerotheca fuliginea) [%]	inhibition of aflatoxin production (Aspergillus parasiticus) [%]
CC(C)C(O)(COc1ccc(I)cc1)c1cncnc1 (stereo not shown) [Compound 22]	≥ 70	≥ 70	≥ 70	> 80	≥ 70	≥ 70	> 80	≥ 70	
CC(C)(C)C(O)(COc1ccc(I)cc1)c1cncnc1 (stereo not shown) [Compound 12]	≥ 70	≥ 70	≥ 70	> 80	≥ 70	≥ 70	> 80	≥ 70	
OC(COc1ccc(Br)cc1)(c1cccnc1)C1(F)CC1 (stereo not shown) [Compound 32]				> 80		≥ 70	> 80	≥ 70	> 80
CC1(C(O)(COc2ccc(Br)cc2)Cn2cncn2)CC1 (stereo not shown) [Compound 9]	≥ 70	≥ 70	≥ 70	> 80	≥ 70		> 80	≥ 70	
OC(COc1ccc(Br)cc1)(c1cncnc1)C1(F)CC1 (stereo not shown) [Compound 23]							> 80		
CC1(C(O)(COc2ccc(I)cc2)Cn2cncn2)CC1 (stereo not shown) [Compound 10]	≥ 70	≥ 70	≥ 70	> 80	≥ 70	≥ 70	> 80	≥ 70	
